No constants are given. Whether binding was seen depends on the method and setting. For some assays here: Binding can be weak; no strength is given. Where a sequence is shown, tags or fusion partners need not be part of it.
How the values were obtained:
[1] = biological target: SKY-BELL domain of ATH1 fused to BD (Arabidopsis thaliana); test: two-hybrid; BD fusions of ATH1 or its HD or SKY-BELL domain co-expressed with AD-OFP1 in yeast Y2HGold; growth on SD QDO (-Leu, -His, -Trp, -Ade) after selection on SD DDO (-Trp, -Leu); three replicates
[2] = biological target: HD domain of ATH1 fused to BD (Arabidopsis thaliana); test: as above

B1: OFP1-AD (Ovate Family Protein1 fused to the activation domain) (protein, UniProt Q9LZW2 1-270)
chain: MGNNYRFKLSELIPNAWFYKLRDMSKSKKKNLQSQPNSTTSKKKHHAVPTPTSTTPLSPRPPRRPSHSSKAPPSHPPRKSSGNRLRHRATVDSKSSTTSGDSTTTETGSFSPDFRSDQVLLPDESLTGSWHSPCSSKLSKTATFTPPPELELRPIITKTAATARKTAVNSPAGVRLRMRSPRISVSSSARRSGSSARRSRAVVKASVDPKRDFKESMEEMIAENKIRATKDLEELLACYLCLNSDEYHAIIINVFKQIWLDLNLPPPHSK
B1 was tested, and the binding [1] was “no binding” and the binding [2] was “binds”.
